Data taken from patent publication US20110052585A1 (Sanofi, published 2011).
Results are given in words; binding and its absence hold for the method and conditions named. Some binding calls cover weakened binding; strength is not graded here.

Legend:
rhIL-17 (human) [1] = target: T1, rhIL-17 (human) (UniProt Q16552); experiment: competition ELISA: IL-17 at 1 ng/ml preincubated with serial dilutions of receptor, free IL-17 measured by ELISA
T1 sequence (looked up): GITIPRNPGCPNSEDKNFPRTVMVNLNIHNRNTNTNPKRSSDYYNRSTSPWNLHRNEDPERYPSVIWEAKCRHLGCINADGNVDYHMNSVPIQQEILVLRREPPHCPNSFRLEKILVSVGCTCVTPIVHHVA

rhIL-17 (human) [2] = target: T1, rhIL-17 (human); experiment: ELISA, ligand coated on plate, conditioned medium with soluble receptor
rhIL-17 (human) [3] = target: T1, rhIL-17 (human); experiment: ELISA, plates pre-coated with IL-17, conditioned medium with soluble receptor, receptor-specific detection antibody

Measured: binding

B1: sIL17RA-9gly-CH3 (Fc fusion)
chain: SLRLLDHRALVCSQPGLNCTVKNSTCLDDSWIHPRNLTPSSPKDLQIQLHFAHTQQGDLFPVAHIEWTLQTDASILYLEGAELSVLQLNTNERLCVRFEFLSKLRHHHRRWRFTFSHFVVDPDQEYEVTVHHLPKPIPDGDPNHQSKNFLVPDCEHARMKVTTPCMSSGSLWDPNITVETLEAHQLRVSFTLWNESTHYQILLTSFPHMENHSCFEHMHHIPAPRPEEFHQRSNVTLTLRNLKGCCRHQVQIQPFFSSCLNDCLRHSATVSCPEMPDTPEPIPDYMTGGGGGGGGGQPREPQVYTLPPSRDELTKNQVSLTCLVKGFYPSDIAVEWESNGQPENNYKTTPPVLDSDGSFFLYSKLTVDKSRWQQGNVFSCSVMHEALHNHYTQKSLSLSPG
binds: rhIL-17 (human) [1] | rhIL-17 (human) [2] | rhIL-17 (human) [3]
